Test results published in PMC9924195.
These are yes or no findings as the source states them, for the method shown. Binding seen in cells or lysates may run through a third protein. Some binding calls cover weakened binding; strength is not graded here.

The chains behind the UniProt entries cited, without tags or fusion partners.
UniProt Q9Y6K9: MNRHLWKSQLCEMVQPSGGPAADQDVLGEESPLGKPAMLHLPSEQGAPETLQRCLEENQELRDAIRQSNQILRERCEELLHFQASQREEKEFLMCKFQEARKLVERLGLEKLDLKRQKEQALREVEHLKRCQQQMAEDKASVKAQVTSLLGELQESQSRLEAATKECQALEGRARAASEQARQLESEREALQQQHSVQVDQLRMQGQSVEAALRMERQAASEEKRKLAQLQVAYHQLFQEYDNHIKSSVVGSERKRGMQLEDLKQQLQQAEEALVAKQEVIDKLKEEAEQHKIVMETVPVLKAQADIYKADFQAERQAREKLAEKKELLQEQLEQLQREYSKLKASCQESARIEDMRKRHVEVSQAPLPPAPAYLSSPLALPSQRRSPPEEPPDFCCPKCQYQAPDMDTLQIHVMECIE

Biological target: Flag-tagged NEMO (pCMV-MCS-IKBKG-3FLAG) (UniProt Q9Y6K9)
Assay: co-IP; GES-1 cells transfected with pCMV-MCS-IKBKG-3FLAG for 48 h; lysed in immunoprecipitation RIPA buffer; 2 mg whole cell lysate with 8 µg anti-flag or mouse IgG isotype control antibody, 16 h at 4 °C; Protein G Sepharose beads; washed 5 times; blotted with anti-NEMO and anti-CMTM3

binding: binds
B1: CKLF-like MARVEL transmembrane domain containing 3 (CMTM3) (protein, UniProt Q96MX0 1-182)
chain: MWPPDPDPDPDPEPAGGSRPGPAVPGLRALLPARAFLCSLKGRLLLAESGLSFITFICYVASSASAFLTAPLLEFLLALYFLFADAMQLNDKWQGLCWPMMDFLRCVTAALIYFAISITAIAKYSDGASKAAGVFGFFATIVFATDFYLIFNDVAKFLKQGDSADETTAHKTEEENSDSDSD
